Paper PMC8110579
No constants are given. Whether binding was seen depends on the method and setting. Binding seen in cells or lysates may run through a third protein. Here binding means that the protein was enriched with, or labelled near, the bait; the list need not be complete. One block for each molecule: values may come before it.

Protein sequences, listed by entry. Tags and fused reporters are not part of them.
UniProt Q8TDG2: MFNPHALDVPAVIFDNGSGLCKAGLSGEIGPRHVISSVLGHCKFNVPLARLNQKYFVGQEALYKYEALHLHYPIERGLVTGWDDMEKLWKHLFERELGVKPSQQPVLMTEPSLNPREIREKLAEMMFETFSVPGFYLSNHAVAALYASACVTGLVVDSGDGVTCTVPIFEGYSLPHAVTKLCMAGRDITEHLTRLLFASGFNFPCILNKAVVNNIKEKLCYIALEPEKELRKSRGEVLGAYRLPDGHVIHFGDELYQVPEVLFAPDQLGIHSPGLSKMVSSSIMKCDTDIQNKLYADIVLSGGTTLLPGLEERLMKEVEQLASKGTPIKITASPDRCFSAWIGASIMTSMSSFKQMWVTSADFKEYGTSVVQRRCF
UniProt O14980: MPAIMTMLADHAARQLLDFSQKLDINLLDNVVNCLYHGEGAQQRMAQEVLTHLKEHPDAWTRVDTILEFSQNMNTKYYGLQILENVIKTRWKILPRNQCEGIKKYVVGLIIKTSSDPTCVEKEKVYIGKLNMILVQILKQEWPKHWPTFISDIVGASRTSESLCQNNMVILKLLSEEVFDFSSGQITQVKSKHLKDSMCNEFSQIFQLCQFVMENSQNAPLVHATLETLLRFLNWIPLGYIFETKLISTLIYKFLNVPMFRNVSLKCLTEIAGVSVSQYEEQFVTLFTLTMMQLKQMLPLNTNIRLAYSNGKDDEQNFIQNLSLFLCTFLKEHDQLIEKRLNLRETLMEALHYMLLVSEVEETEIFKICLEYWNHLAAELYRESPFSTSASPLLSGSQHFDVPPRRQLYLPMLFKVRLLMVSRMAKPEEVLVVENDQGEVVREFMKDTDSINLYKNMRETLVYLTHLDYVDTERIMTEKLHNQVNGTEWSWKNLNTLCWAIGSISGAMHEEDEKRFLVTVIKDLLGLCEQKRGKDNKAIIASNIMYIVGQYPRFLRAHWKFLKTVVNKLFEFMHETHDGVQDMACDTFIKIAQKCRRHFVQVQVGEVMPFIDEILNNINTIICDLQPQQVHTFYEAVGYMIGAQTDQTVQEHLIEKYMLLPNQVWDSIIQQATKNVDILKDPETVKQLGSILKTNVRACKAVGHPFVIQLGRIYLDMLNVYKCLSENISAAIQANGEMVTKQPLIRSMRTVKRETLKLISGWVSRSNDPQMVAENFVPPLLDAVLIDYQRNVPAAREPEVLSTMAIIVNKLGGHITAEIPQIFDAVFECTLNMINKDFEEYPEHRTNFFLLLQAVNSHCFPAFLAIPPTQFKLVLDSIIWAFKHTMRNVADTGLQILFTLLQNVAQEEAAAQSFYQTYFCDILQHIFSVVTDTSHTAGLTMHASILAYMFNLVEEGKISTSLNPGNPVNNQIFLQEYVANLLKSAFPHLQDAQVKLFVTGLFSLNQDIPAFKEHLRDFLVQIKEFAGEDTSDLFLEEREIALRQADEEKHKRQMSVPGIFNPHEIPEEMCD
UniProt Q14247: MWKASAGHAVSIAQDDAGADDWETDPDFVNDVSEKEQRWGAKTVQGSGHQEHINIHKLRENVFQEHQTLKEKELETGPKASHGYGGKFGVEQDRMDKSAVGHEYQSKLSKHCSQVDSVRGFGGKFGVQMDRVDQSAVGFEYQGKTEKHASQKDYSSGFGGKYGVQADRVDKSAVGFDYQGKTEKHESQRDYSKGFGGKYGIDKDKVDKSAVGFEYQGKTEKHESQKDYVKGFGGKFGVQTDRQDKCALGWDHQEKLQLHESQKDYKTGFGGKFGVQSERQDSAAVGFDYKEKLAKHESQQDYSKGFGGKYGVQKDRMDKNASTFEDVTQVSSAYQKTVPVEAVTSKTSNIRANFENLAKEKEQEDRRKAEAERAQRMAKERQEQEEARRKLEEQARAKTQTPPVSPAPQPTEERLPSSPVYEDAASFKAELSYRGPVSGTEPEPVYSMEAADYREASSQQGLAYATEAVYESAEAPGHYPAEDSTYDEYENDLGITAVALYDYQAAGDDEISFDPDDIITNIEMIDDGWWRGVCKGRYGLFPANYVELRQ
UniProt P21333: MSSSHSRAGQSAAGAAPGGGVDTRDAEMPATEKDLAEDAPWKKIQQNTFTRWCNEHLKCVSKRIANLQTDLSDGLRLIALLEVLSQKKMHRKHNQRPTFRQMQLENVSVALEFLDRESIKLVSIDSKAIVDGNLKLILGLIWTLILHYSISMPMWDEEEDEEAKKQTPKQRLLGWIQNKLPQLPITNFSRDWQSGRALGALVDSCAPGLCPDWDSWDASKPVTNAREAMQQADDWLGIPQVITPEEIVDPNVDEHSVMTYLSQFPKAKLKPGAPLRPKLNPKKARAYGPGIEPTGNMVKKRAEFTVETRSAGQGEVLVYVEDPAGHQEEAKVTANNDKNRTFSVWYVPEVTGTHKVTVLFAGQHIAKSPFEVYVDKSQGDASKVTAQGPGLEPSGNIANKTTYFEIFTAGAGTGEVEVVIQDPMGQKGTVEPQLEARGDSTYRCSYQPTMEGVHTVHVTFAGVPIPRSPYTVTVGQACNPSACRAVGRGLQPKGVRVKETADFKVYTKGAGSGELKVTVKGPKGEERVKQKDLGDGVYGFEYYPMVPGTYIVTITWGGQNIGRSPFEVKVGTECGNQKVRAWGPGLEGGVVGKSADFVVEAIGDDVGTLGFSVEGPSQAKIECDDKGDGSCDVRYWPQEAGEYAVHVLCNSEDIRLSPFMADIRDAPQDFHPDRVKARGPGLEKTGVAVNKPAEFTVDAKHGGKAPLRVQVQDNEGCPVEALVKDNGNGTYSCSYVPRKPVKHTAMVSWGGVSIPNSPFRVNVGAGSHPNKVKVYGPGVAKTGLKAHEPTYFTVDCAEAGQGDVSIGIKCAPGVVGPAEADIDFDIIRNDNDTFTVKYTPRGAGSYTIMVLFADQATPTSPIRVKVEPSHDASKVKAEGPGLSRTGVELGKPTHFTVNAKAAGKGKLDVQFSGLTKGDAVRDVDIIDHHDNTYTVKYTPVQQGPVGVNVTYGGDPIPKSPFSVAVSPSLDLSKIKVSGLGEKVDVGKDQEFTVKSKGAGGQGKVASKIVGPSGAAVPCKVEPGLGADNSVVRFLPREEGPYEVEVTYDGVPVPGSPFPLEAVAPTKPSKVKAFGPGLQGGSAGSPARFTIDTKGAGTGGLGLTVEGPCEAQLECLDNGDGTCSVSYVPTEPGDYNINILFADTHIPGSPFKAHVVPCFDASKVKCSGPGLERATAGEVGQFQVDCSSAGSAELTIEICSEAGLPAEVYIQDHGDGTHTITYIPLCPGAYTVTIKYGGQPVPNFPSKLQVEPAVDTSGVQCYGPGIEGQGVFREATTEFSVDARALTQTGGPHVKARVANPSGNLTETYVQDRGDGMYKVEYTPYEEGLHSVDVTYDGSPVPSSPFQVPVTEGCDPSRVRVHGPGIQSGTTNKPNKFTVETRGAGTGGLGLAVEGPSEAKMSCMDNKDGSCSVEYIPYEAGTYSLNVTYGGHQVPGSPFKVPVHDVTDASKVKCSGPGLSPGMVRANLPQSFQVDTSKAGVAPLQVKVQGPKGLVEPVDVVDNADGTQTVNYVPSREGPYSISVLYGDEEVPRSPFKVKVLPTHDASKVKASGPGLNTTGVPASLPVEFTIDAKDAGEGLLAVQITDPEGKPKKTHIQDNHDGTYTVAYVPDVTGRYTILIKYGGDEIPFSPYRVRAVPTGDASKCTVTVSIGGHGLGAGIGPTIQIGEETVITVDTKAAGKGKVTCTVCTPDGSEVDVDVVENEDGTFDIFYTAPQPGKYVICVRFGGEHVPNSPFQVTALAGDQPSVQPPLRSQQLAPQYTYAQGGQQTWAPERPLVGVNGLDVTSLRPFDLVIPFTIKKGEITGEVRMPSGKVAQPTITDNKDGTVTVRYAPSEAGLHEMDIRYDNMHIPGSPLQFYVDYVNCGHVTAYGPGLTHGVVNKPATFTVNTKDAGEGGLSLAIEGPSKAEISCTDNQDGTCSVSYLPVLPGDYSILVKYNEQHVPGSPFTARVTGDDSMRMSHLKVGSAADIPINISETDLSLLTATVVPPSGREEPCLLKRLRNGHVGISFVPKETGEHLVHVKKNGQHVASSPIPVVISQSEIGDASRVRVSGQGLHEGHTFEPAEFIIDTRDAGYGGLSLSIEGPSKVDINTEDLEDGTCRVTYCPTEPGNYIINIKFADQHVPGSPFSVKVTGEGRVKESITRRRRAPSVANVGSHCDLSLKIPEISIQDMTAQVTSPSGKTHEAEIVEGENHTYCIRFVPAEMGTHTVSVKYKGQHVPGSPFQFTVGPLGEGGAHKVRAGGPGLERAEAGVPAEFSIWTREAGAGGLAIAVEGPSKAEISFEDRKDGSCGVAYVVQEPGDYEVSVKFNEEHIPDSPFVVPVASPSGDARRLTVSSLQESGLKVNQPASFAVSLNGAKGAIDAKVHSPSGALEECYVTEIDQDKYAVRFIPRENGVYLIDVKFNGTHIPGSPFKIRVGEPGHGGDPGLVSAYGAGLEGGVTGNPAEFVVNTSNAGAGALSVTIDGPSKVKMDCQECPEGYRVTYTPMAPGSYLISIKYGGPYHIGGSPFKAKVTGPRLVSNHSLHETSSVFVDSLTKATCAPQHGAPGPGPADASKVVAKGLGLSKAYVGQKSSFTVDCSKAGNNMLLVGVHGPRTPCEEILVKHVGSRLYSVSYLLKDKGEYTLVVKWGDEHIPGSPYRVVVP
UniProt O95816: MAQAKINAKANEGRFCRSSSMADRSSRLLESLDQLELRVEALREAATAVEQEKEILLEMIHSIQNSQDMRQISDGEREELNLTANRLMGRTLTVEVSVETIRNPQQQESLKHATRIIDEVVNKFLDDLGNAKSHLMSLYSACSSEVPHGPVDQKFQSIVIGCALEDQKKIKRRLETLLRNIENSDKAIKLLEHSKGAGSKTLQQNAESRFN
UniProt P61026: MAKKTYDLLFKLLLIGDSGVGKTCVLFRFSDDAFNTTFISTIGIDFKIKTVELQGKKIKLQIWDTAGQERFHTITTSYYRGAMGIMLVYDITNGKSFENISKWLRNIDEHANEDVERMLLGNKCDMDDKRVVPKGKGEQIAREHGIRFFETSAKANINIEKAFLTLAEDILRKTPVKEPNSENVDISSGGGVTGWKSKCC
UniProt P46379: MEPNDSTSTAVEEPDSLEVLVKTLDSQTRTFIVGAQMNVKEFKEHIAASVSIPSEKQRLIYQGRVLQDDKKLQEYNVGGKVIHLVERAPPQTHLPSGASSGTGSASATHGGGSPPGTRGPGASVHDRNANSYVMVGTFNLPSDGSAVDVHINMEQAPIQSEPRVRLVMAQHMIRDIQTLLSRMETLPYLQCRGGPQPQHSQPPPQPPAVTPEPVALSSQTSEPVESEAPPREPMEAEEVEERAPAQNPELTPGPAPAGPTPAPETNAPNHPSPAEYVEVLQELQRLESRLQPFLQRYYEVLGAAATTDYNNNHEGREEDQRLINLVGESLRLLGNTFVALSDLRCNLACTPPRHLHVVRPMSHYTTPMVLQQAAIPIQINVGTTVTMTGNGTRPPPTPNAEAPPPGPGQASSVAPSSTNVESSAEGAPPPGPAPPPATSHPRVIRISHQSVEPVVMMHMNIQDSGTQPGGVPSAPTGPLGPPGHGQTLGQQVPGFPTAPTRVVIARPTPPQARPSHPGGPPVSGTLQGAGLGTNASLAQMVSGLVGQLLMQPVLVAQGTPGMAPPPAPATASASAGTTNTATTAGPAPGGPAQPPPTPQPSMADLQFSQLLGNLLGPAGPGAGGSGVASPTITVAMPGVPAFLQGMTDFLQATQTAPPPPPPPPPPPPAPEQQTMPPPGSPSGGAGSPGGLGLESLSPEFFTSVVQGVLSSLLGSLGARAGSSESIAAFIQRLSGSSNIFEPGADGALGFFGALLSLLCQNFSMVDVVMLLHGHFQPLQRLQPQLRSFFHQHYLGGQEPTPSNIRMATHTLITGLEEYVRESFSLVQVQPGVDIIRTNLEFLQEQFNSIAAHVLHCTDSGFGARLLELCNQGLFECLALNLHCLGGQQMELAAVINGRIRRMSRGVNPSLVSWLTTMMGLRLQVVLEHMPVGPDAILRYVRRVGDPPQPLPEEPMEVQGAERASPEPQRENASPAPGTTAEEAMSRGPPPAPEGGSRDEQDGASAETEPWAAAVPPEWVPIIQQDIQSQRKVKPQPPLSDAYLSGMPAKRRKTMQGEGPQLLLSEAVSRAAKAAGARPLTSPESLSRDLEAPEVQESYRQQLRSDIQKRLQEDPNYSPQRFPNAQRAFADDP
UniProt P20340: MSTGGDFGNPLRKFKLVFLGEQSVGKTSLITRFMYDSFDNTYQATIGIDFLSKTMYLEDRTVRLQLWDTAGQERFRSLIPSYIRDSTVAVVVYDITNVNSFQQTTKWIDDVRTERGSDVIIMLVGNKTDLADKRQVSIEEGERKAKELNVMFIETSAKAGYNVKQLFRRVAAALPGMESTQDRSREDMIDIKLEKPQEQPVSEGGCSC

Key:
[1] = biological target: Actin-Related Protein-Testis1 (ARP-T1), wild type, tagged with DDK (human) (UniProt Q8TDG2); experiment: affinity purification with mass spectrometry; ARP-T1-DDK from transduced serum-starved (differentiated) hTERT-RPE1 cells held on anti-FLAG M2 affinity gel; FLAG lysis buffer; precipitate separated on a gel, digested with trypsin, Orbitrap mass spectrometry; empty vector as control
[2] = biological target: Actin-Related Protein-Testis1 (ARP-T1), wild type, tagged with DDK (human) (UniProt Q8TDG2); experiment: affinity purification with mass spectrometry; ARP-T1-DDK from transduced HeLa cells held on anti-FLAG M2 affinity gel; FLAG lysis buffer (50 mM Tris/HCl pH 7.5, 150 mM NaCl, 1 mM EDTA, 1% Triton X-100); precipitate separated on a gel, digested with trypsin, Orbitrap mass spectrometry; empty vector as control
[3] = biological target: Actin-Related Protein-Testis1 (ARP-T1), wild type, tagged with DDK (human) (UniProt Q8TDG2); experiment: affinity purification with mass spectrometry; ARP-T1-DDK from transduced differentiated NHEK held on anti-FLAG M2 affinity gel; FLAG lysis buffer; precipitate separated on a gel, digested with trypsin, Orbitrap mass spectrometry; empty vector as control

Molecule: Exportin 1 (from UniProt O14980 1-1071)
binding [2]: binds

Molecule: T-complex protein 1 subunit theta (TCP1 theta) (from UniProt P50990 1-548)
binding [1]: binds | binding [2]: binds

Molecule: Cortactin (from UniProt Q14247 1-550)
binding [1]: binds

Molecule: Filamin-A (from UniProt P21333 1-2647)
binding [2]: binds

Molecule: BAG family molecular chaperone regulator 2 (BAG 2) (from UniProt O95816 1-211)
binding [3]: binds | binding [1]: binds | binding [2]: binds

Molecule: Rab10 (from UniProt P61026 1-200)
binding [1]: binds

Molecule: BAG family molecular chaperone regulator 6 (BAG 6) (from UniProt P46379 1-1132)
binding [3]: binds

Molecule: Rab18 (from UniProt Q9NP72 1-206)
binding [3]: binds

B1: Erlin-2 (protein, UniProt O94905 1-339)
chain: MAQLGAVVAVASSFFCASLFSAVHKIEEGHIGVYYRGGALLTSTSGPGFHLMLPFITSYKSVQTTLQTDEVKNVPCGTSGGVMIYFDRIEVVNFLVPNAVYDIVKNYTADYDKALIFNKIHHELNQFCSVHTLQEVYIELFDQIDENLKLALQQDLTSMAPGLVIQAVRVTKPNIPEAIRRNYELMESEKTKLLIAAQKQKVVEKEAETERKKALIEAEKVAQVAEITYGQKVMEKETEKKISEIEDAAFLAREKAKADAECYTAMKIAEANKLKLTPEYLQLMKYKAIASNSKIYFGKDIPNMFMDSAGSVSKQFEGLADKLSFGLEDEPLETATKEN
binding [3]: binds | binding [2]: binds

B2: EH domain-containing protein 1 (EHD1) (protein, UniProt Q9H4M9 1-534)
chain: MFSWVSKDARRKKEPELFQTVAEGLRQLYAQKLLPLEEHYRFHEFHSPALEDADFDNKPMVLLVGQYSTGKTTFIRHLIEQDFPGMRIGPEPTTDSFIAVMHGPTEGVVPGNALVVDPRRPFRKLNAFGNAFLNRFMCAQLPNPVLDSISIIDTPGILSGEKQRISRGYDFAAVLEWFAERVDRIILLFDAHKLDISDEFSEVIKALKNHEDKIRVVLNKADQIETQQLMRVYGALMWSLGKIINTPEVVRVYIGSFWSHPLLIPDNRKLFEAEEQDLFKDIQSLPRNAALRKLNDLIKRARLAKVHAYIISSLKKEMPNVFGKESKKKELVNNLGEIYQKIEREHQISPGDFPSLRKMQELLQTQDFSKFQALKPKLLDTVDDMLANDIARLMVMVRQEESLMPSQVVKGGAFDGTMNGPFGHGYGEGAGEGIDDVEWVVGKDKPTYDEIFYTLSPVNGKITGANAKKEMVKSKLPNTVLGKIWKLADVDKDGLLDDEEFALANHLIKVKLEGHELPADLPPHLVPPSKRRHE
binding [1]: binds

B3: Septin-2 (protein, UniProt Q15019 1-361)
chain: MSKQQPTQFINPETPGYVGFANLPNQVHRKSVKKGFEFTLMVVGESGLGKSTLINSLFLTDLYPERVIPGAAEKIERTVQIEASTVEIEERGVKLRLTVVDTPGYGDAINCRDCFKTIISYIDEQFERYLHDESGLNRRHIIDNRVHCCFYFISPFGHGLKPLDVAFMKAIHNKVNIVPVIAKADTLTLKERERLKKRILDEIEEHNIKIYHLPDAESDEDEDFKEQTRLLKASIPFSVVGSNQLIEAKGKKVRGRLYPWGVVEVENPEHNDFLKLRTMLITHMQDLQEVTQDLHYENFRSERLKRGGRKVENEDMNKDQILLEKEAELRRMQEMIARMQAQMQMQMQGGDGDGGALGHHV
binding [1]: binds

B4: EH domain containing protein 4 (EHD4) (protein, UniProt Q9H223 1-541)
chain: MFSWMGRQAGGRERAGGADAVQTVTGGLRSLYLRKVLPLEEAYRFHEFHSPALEDADFENKPMILLVGQYSTGKTTFIRYLLEQDFPGMRIGPEPTTDSFIAVMYGETEGSTPGNALVVDPKKPFRKLSRFGNAFLNRFMCSQLPNQVLKSISVIDSPGILSGEKQRISRGYDFCQVLQWFAERVDRIILLFDAHKLDISDEFSEAIKAFRGQDDKIRVVLNKADQVDTQQLMRVYGALMWSLGKVINTPEVLRVYIGSFWAQPLQNTDNRRLFEAEAQDLFRDIQSLPQKAAVRKLNDLIKRARLAKVHAYIISYLKKEMPSVFGKENKKRELISRLPEIYIQLQREYQISAGDFPEVKAMQEQLENYDFTKFHSLKPKLIEAVDNMLSNKISPLMNLISQEETSTPTQLVQGGAFDGTTEGPFNQGYGEGAKEGADEEEWVVAKDKPVYDELFYTLSPINGKISGVNAKKEMVTSKLPNSVLGKIWKLADCDCDGMLDEEEFALAKHLIKIKLDGYELPSSLPPHLVPPSHRKSLPKAD
binding [1]: binds

B5: Septin-9 (protein, UniProt Q9UHD8 1-586)
chain: MKKSYSGGTRTSSGRLRRLGDSSGPALKRSFEVEEVETPNSTPPRRVQTPLLRATVASSTQKFQDLGVKNSEPSARHVDSLSQRSPKASLRRVELSGPKAAEPVSRRTELSIDISSKQVENAGAIGPSRFGLKRAEVLGHKTPEPAPRRTEITIVKPQESAHRRMEPPASKVPEVPTAPATDAAPKRVEIQMPKPAEAPTAPSPAQTLENSEPAPVSQLQSRLEPKPQPPVAEATPRSQEATEAAPSCVGDMADTPRDAGLKQAPASRNEKAPVDFGYVGIDSILEQMRRKAMKQGFEFNIMVVGQSGLGKSTLINTLFKSKISRKSVQPTSEERIPKTIEIKSITHDIEEKGVRMKLTVIDTPGFGDHINNENCWQPIMKFINDQYEKYLQEEVNINRKKRIPDTRVHCCLYFIPATGHSLRPLDIEFMKRLSKVVNIVPVIAKADTLTLEERVHFKQRITADLLSNGIDVYPQKEFDEDSEDRLVNEKFREMIPFAVVGSDHEYQVNGKRILGRKTKWGTIEVENTTHCEFAYLRDLLIRTHMQNIKDITSSIHFEAYRVKRLNEGSSAMANGMEEKEPEAPEM
binding [1]: binds

Further lines, results first:

binding [1]: binds
Molecule: Rab6A (from UniProt P20340 1-208)

binding [1]: binds
Molecule: RuvB-like 1 (from UniProt Q9Y265 1-456)

binding [2]: binds
Molecule: Heat shock cognate 71 kDa protein (from UniProt P11142 1-646)

binding [2]: binds
Molecule: Ras-related protein Rab-8A (from UniProt P61006 1-207)

binding [3]: binds
B6: T-complex protein 1 subunit beta (TCP1 beta) (protein, UniProt P78371 1-535)
chain: MASLSLAPVNIFKAGADEERAETARLTSFIGAIAIGDLVKSTLGPKGMDKILLSSGRDASLMVTNDGATILKNIGVDNPAAKVLVDMSRVQDDEVGDGTTSVTVLAAELLREAESLIAKKIHPQTIIAGWREATKAAREALLSSAVDHGSDEVKFRQDLMNIAGTTLSSKLLTHHKDHFTKLAVEAVLRLKGSGNLEAIHIIKKLGGSLADSYLDEGFLLDKKIGVNQPKRIENAKILIANTGMDTDKIKIFGSRVRVDSTAKVAEIEHAEKEKMKEKVERILKHGINCFINRQLIYNYPEQLFGAAGVMAIEHADFAGVERLALVTGGEIASTFDHPELVKLGSCKLIEEVMIGEDKLIHFSGVALGEACTIVLRGATQQILDEAERSLHDALCVLAQTVKDSRTVYGGGCSEMLMAHAVTQLANRTPGKEAVAMESYAKALRMLPTIIADNAGYDSADLVAQLRAAHSEGNTTAGLDMREGTIGDMAILGITESFQVKRQVLLSAAEAAEVILRVDNIIKAAPRKRVPDHHPC
